Test results reported in the supplement of paper PMC5949888.
Most values lie at the floor of the assay. Slopes are relative: functional sequences can read slightly below zero.

Each substance was assayed on Saccharomyces cerevisiae PS128 hsf1 delta, HSF1(1-493) fusion (assay: growth estimate (transactivation domain function in HSF1 fusion, heat-shock survival) (a.u. (slope of normalised read count over time)); higher = stronger growth at 37°C, i.e. more transactivation activity). Details: library: random library.
In the case of SLVE, the growth estimate was < -0.25.
With SLVGMARLQGPRPACHYCMP the growth estimate was < -0.25.
Substance SLVRCVNI has a growth estimate of -0.157.
SLVRPPAKTKVCGVRR was tested, and the growth estimate was < -0.25.
With SLWESRLICCNTRLKCVWGL the growth estimate was < -0.25.
For SLWG, the growth estimate was < -0.25.
With SLWGPSIGRAPSGRQGTPRL the growth estimate was < -0.25.
SLYAGL was tested, and the growth estimate was < -0.25.
For SMAVAVISEANWITLDTSAK, the growth estimate was < -0.25.
For SMCSMGVIAERFMMG, the growth estimate was < -0.25.
With SMEYYASR the growth estimate was < -0.25.
With SMFETRIQLAFDCRAV the growth estimate was < -0.25.
SMFPGRCCTSFDDNSPQHRH was tested, and the growth estimate was < -0.25.
With SMFVRMLDVVCRSGLVVVSG the growth estimate was < -0.25.
SMFVWDP showed a growth estimate of -0.164.
SMGKPRSDPRHIIACRTVIR was tested, and the growth estimate was < -0.25.
With SMGTLVHWG the growth estimate was < -0.25.
For SMHVAACTCACFDPSHLAML, the growth estimate was -0.193.
SMICN was tested, and the growth estimate was < -0.25.
In the case of SMKK, the growth estimate was < -0.25.
In the case of SMMTAAMGGTLARNTKAVIL, the growth estimate was < -0.25.
SMPPFIMLPVHAGSGEPWR was tested, and the growth estimate was < -0.25.
In the case of SMPYDRWERATR, the growth estimate was < -0.25.
With SMQSGSLPACIAPGARGPTD the growth estimate was < -0.25.
SMVAEMNVLTLPLR was tested, and the growth estimate was < -0.25.
SMVPQDSGHLFCTSDSPSAH was tested, and the growth estimate was < -0.25.
For SMVRKNILNCRWDYGLLTSG, the growth estimate was < -0.25.
For SMYVLVRFRA, the growth estimate was < -0.25.
For SNAF, the growth estimate was < -0.25.
For SNASSAVIRSIRLLNQRILR, the growth estimate was < -0.25.
In the case of SNATASNRYALVQYMVSFST, the growth estimate was < -0.25.
SNDSGSRCFGSSFLHTTSRG was tested, and the growth estimate was < -0.25.
SNFHTLPGKRKASLSKTHAR was tested, and the growth estimate was < -0.25.
SNGV was tested, and the growth estimate was < -0.25.
SNI was tested, and the growth estimate was < -0.25.
With SNISLDKHFYSCSIDHVSDL the growth estimate was < -0.25.
SNLPEVYRTFFKHRSCGCTT was tested, and the growth estimate was < -0.25.
SNLRADLLARMSPRLGARGI was tested, and the growth estimate was < -0.25.
With SNPT the growth estimate was < -0.25.
In the case of SNQLKSPILG, the growth estimate was < -0.25.
For SNRGCQKFRD, the growth estimate was -0.197.
With SNRPAKPPVGGLPLSVNGKP the growth estimate was < -0.25.
In the case of SNRQGERKAKAPSSVFIVYW, the growth estimate was < -0.25.
SNRRTLISYRSPRVRPGCLT was tested, and the growth estimate was -0.0802.
In the case of SNSGYRTWVEGPSIDCSQSA, the growth estimate was < -0.25.
For SNTHPVRERIWASVARWHFR, the growth estimate was < -0.25.
In the case of SNTKDSTETREV, the growth estimate was < -0.25.
SPAAGKPEARVCSGINIRAS was tested, and the growth estimate was < -0.25.
SPAARTH was tested, and the growth estimate was < -0.25.
For SPCECVDRCDDSVVAQYDP, the growth estimate was < -0.25.
With SPCLAQCAHPDVQESGPGHM the growth estimate was < -0.25.
In the case of SPCVRTIENLMP, the growth estimate was < -0.25.
With SPEFLPGGSGLRC the growth estimate was < -0.25.
SPFII was tested, and the growth estimate was < -0.25.
SPFQELGPERVRLAGYERTE was tested, and the growth estimate was < -0.25.
SPGGMLSEGIRKRACIANSG was tested, and the growth estimate was < -0.25.
SPGMCGAENQSCKRPNESHR was tested, and the growth estimate was < -0.25.
For SPHLGVPNRVFCRSSSLVIV, the growth estimate was < -0.25.
For SPHPLGKWN, the growth estimate was < -0.25.
In the case of SPHRPSIHLRSKKLVYGTGD, the growth estimate was < -0.25.
With SPIG the growth estimate was < -0.25.
In the case of SPKRGSR, the growth estimate was < -0.25.
SPLGYYLVAPCPWI was tested, and the growth estimate was < -0.25.
In the case of SPLIPSLPF, the growth estimate was < -0.25.
For SPPAQPIQ, the growth estimate was < -0.25.
For SPPGSLEFQPCASRYRGGGP, the growth estimate was < -0.25.
With SPPIRGESSVAL the growth estimate was < -0.25.
For SPQGEISGFQV, the growth estimate was < -0.25.
In the case of SPRKPFSCKRTRVSFDGRHN, the growth estimate was < -0.25.
In the case of SPRLRSRPGGVQNGGQFRGI, the growth estimate was < -0.25.
In the case of SPRRGLSRVKQRYQGSGRRD, the growth estimate was < -0.25.
In the case of SPRRR, the growth estimate was < -0.25.
SPSCRAIGSREPKGKL was tested, and the growth estimate was < -0.25.
For SPSRPKNLDTADAPSVVDLA, the growth estimate was < -0.25.
For SPSRRCRDNSWSHQELELCR, the growth estimate was < -0.25.
For SPSRSGLYLFTF, the growth estimate was < -0.25.
For SPTKRHRSSPSLHRVPKYYF, the growth estimate was < -0.25.
In the case of SPTQERPEEPIVSSAVDDTK, the growth estimate was < -0.25.
In the case of SPTRRGWLSRGVVKHW, the growth estimate was < -0.25.
For SPTS, the growth estimate was < -0.25.
With SPWEETDLVAGP the growth estimate was -0.201.
For SQAIIPDIDGLLSWWNEAYA, the growth estimate was < -0.25.
With SQALRIG the growth estimate was < -0.25.
SQAPFLRS was tested, and the growth estimate was < -0.25.
In the case of SQCELTPHIYLAGSPGLPLF, the growth estimate was < -0.25.
SQCSRCHRVLVSESALHRAC was tested, and the growth estimate was < -0.25.
In the case of SQGHVSVRLAGYERTDCPRG, the growth estimate was < -0.25.
SQGRIVVVV was tested, and the growth estimate was < -0.25.
With SQI the growth estimate was -0.246.
For SQILK, the growth estimate was < -0.25.
With SQKQPPLSPAPSGSARI the growth estimate was < -0.25.
In the case of SQL, the growth estimate was < -0.25.
In the case of SQLCTTAQMKCSAVTFFGIP, the growth estimate was < -0.25.
SQLPEPHVSETFSG showed a growth estimate of -0.201.
With SQLSRRRP the growth estimate was < -0.25.
SQPAWME was tested, and the growth estimate was < -0.25.
SQRCRDPGPQARESYRQAEA was tested, and the growth estimate was < -0.25.
SQRDQK was tested, and the growth estimate was < -0.25.
SQRLAEALERTLVRGYRKEP was tested, and the growth estimate was < -0.25.
